Measured values taken from the supplement of paper PMC10849652.
The list shows a part of the results.

Sequences of proteins named here, by UniProt entry; tags and fusion partners are left off. A change or cut given only in a name is not applied to a line headed by its entry.
UniProt Q9UI09, whole entry, looked up: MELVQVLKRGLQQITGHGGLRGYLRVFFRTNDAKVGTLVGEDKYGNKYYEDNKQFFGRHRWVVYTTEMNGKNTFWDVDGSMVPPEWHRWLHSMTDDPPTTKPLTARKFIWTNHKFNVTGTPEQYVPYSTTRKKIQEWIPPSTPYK
UniProt Q8TD19: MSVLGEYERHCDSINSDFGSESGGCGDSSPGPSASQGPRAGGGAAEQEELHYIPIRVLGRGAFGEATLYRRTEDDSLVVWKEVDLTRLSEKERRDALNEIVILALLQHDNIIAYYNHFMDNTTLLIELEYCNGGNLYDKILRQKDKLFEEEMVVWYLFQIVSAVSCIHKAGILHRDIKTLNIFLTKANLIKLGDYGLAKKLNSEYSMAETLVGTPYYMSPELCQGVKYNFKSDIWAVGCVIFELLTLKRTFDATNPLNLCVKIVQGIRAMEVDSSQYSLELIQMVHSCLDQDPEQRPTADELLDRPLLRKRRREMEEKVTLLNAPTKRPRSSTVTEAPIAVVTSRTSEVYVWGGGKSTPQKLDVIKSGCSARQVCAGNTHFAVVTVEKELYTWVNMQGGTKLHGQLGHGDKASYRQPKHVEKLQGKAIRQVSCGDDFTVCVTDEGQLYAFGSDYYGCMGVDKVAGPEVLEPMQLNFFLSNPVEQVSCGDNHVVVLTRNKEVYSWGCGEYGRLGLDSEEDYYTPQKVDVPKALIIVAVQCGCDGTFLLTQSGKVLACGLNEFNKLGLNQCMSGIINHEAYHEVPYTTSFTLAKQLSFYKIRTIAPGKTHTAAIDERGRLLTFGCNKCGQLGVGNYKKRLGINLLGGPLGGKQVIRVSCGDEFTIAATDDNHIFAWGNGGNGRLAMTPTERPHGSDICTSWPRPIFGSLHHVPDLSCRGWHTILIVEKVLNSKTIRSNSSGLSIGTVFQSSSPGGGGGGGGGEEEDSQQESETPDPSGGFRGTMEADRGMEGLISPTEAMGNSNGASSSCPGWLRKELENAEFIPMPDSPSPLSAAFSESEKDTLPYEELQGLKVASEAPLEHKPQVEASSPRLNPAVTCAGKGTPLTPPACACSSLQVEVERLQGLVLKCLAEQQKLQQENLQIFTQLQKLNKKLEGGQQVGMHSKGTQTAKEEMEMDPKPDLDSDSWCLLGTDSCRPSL
UniProt Q92597: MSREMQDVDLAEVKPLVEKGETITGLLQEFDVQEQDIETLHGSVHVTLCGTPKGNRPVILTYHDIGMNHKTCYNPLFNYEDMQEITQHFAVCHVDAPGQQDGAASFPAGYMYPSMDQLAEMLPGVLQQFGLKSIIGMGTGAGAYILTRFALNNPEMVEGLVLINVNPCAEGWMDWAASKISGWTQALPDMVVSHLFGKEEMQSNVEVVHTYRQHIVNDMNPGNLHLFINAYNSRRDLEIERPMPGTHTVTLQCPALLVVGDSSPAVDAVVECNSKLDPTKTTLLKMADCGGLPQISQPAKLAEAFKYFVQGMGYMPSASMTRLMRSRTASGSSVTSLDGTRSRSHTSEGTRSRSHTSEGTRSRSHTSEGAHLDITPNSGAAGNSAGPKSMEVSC
UniProt Q6ZNB6: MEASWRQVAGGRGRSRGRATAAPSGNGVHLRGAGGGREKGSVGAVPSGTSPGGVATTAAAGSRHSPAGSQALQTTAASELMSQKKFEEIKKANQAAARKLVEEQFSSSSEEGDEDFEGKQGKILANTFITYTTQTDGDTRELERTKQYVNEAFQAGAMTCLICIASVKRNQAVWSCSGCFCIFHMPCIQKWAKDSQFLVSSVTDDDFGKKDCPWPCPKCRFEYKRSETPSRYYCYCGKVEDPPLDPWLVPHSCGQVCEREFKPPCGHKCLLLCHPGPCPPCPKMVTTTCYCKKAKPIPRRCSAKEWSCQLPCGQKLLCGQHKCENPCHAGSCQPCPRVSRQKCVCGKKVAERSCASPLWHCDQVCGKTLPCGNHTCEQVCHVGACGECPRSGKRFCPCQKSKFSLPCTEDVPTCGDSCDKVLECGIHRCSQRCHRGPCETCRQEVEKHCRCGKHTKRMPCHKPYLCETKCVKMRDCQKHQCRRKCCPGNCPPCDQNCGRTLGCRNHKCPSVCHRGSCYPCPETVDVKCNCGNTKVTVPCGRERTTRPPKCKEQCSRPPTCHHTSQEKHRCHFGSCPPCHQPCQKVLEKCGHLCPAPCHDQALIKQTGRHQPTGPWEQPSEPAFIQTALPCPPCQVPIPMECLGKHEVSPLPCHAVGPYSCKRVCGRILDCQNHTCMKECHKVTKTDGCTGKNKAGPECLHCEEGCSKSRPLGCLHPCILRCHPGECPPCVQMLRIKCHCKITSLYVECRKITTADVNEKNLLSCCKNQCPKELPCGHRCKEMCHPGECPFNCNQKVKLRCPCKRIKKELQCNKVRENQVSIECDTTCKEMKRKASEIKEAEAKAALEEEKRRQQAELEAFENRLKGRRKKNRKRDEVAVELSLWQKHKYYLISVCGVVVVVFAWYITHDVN
UniProt O76041: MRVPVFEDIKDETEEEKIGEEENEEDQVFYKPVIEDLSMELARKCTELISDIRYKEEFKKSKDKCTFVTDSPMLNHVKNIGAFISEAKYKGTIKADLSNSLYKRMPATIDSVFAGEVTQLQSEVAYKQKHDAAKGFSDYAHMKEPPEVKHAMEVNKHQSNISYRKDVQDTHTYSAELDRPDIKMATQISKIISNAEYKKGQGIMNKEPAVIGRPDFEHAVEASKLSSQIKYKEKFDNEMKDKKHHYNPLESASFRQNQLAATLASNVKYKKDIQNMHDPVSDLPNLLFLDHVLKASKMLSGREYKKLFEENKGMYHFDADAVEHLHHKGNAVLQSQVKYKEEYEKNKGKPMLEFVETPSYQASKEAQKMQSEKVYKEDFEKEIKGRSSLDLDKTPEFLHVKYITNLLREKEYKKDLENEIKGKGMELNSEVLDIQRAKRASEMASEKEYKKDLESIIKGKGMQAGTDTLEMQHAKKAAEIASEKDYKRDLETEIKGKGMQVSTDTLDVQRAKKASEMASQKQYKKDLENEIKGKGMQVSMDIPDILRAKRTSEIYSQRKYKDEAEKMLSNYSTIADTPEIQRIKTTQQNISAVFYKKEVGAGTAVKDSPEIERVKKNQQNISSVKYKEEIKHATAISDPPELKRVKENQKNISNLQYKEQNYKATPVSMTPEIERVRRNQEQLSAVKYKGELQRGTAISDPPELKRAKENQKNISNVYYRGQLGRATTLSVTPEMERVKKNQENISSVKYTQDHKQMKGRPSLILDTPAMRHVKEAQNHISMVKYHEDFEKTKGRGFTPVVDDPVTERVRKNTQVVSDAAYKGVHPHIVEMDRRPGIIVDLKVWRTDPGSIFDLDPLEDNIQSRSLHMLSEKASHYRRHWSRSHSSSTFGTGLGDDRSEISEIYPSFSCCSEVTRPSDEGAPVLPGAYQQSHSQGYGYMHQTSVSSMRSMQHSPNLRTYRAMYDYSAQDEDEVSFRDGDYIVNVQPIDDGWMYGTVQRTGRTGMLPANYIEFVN
UniProt P51970, whole entry, looked up: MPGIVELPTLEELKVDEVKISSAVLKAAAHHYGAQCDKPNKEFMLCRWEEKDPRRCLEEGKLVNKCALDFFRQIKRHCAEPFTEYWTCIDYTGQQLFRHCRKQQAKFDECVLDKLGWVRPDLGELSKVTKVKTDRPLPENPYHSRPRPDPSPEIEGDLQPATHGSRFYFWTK
UniProt Q8NCF5: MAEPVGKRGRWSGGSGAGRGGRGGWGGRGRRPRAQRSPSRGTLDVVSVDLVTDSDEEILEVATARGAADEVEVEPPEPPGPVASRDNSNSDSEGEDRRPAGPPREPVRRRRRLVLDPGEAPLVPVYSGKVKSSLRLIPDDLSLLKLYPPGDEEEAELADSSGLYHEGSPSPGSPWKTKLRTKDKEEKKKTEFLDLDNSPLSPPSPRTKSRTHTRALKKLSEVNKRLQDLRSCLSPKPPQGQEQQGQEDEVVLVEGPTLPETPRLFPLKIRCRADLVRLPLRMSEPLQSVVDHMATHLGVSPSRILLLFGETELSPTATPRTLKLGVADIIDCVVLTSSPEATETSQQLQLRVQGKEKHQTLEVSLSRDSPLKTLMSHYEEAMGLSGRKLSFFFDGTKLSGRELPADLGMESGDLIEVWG
UniProt Q9Y221: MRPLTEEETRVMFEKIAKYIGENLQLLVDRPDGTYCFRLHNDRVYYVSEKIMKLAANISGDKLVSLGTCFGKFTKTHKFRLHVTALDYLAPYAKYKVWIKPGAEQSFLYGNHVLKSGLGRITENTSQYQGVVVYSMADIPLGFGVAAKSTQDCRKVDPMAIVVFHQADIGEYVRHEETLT
UniProt Q9NXR1: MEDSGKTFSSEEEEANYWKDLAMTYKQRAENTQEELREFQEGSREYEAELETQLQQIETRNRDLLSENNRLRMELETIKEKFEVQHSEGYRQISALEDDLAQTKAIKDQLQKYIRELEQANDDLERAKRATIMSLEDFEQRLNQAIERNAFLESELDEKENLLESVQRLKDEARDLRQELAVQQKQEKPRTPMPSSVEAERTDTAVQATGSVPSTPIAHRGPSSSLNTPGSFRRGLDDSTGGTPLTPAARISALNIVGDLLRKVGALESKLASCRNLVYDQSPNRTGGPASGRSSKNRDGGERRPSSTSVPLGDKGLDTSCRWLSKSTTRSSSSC
UniProt Q0ZGT2: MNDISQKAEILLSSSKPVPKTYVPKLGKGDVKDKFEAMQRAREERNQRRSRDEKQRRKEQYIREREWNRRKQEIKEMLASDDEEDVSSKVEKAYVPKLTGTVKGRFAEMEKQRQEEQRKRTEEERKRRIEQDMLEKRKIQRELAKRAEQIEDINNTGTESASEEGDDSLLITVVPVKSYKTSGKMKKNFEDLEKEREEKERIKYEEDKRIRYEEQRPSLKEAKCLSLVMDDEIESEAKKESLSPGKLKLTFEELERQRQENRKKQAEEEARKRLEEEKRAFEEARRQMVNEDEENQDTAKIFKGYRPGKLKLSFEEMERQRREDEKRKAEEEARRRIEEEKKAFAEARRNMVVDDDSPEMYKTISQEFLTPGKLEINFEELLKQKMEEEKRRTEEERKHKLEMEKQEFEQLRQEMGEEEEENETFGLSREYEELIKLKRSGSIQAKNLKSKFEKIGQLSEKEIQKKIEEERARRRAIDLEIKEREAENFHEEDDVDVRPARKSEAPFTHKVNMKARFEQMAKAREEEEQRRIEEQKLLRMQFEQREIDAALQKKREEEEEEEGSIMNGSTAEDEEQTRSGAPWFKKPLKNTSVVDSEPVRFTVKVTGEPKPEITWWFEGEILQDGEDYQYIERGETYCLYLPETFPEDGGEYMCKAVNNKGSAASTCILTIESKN
UniProt O95298, whole entry, looked up: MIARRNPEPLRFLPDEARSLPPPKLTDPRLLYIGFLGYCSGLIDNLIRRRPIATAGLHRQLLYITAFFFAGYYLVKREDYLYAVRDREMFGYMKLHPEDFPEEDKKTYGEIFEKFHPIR
UniProt O95168, whole entry, looked up: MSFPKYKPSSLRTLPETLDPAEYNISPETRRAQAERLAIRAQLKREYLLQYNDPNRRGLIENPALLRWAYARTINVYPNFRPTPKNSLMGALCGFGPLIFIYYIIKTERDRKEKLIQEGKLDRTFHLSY
UniProt O43674, whole entry, looked up: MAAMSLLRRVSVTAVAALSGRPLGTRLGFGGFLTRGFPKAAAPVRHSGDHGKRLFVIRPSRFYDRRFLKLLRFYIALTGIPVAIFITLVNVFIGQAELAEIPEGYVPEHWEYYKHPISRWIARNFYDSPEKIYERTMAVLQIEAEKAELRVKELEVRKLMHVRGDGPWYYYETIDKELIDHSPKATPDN
UniProt Q9UMX5: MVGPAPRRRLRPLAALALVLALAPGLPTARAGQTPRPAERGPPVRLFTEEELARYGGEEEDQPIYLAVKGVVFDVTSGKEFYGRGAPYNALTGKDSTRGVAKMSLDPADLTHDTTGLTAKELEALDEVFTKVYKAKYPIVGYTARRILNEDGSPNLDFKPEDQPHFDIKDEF
UniProt Q86SG6: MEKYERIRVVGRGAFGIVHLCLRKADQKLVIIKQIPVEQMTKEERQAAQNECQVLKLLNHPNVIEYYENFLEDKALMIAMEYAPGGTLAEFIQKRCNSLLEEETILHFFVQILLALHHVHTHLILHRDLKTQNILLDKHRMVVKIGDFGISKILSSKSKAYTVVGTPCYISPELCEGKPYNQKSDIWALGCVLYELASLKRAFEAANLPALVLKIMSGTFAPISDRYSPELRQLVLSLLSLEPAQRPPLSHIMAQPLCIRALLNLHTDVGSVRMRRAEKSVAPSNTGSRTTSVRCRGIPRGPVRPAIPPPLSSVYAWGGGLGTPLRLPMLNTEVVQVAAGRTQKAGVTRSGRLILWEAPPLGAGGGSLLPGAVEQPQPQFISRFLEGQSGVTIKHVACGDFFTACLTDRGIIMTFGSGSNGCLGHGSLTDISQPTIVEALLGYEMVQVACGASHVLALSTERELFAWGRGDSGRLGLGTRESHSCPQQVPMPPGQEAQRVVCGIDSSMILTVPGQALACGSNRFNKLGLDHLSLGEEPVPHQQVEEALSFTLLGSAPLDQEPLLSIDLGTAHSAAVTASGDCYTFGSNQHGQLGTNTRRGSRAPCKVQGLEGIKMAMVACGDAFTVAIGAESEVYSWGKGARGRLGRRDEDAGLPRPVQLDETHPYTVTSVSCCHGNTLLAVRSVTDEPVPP

What was measured:
Assay in all cases: log2 fold change, soluble protein after heating vs DMSO (PISA); higher = thermal stabilisation; K562 lysate, 10 uM; active = over 0.2 and 3.5 SD of the protein, either way, in both replicates (recomputed)
[1] = compound: C1=CC=C(C=C1)[C@H](COC2=CC3=C(C=C2)NC(=O)N3)NC(=O)C4=CC=CN(C4=O)CC5=CC(=C(C=C5)F)F
Method in brief: (§1)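 Quantification was by TMTpro 16plex LC-MS/MS with equalised channel sums, applied to the supernatant after 21,000xg for 90 min. Samples were crude K562 extract at 1 mg/mL protein in PBS pH 7.4 with 1 mM MgCl2, treated with 10 μM compound for 30 min, heated for 3 min across 48°C-58°C, pooled and brought to 0.5% NP-40 at 4°C. Values are log-two fold changes in thermal stability relative to solvent controls, from duplicates.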

[2] = compound: CC1=C(SC2=C1C(=N[C@H](C3=NN=C(N32)C)CC(=O)N)C4=CC=C(C=C4)Cl)C
Method in brief: as §1

[3] = compound: CC1=C2C(=CC=C1)N=C(N(C2=O)C3=CC=CC=C3C)CN4C=NC5=C(N=CN=C54)N
Method in brief: as §1

[4] = compound: Cc1sc2c(c1C)C(c1ccc(Cl)cc1)=N[C@@H](CC(=O)OC(C)(C)C)c1nnc(C)n1-2
Method in brief: as §1

[5] = compound: c1ccc([C@@H]2C[C@H]2NC2CCNCC2)cc1
Method in brief: as §1

Row | Target | log2 fold change [1] | log2 fold change [2] | log2 fold change [3] | log2 fold change [4] | log2 fold change [5]
1 | NFKB2 (UniProt Q00653) | inactive: -0.001 | inactive: 0.009 | inactive: 0.016 | inactive: -0.021 | inactive: 0.002
2 | NDUFV3 (UniProt P56181) | inactive: 0.043 | inactive: -0.023 | inactive: -0.064 | inactive: -0.108 | inactive: -0.019
3 | NEU4 (UniProt C9JEA3) | inactive: 0.061 | inactive: 0.017 | inactive: 0.024 | inactive: -0.068 | inactive: 0.061
4 | NDUFA3 (UniProt O95167) | inactive: -0.079 | inactive: 0.102 | inactive: -0.009 | inactive: 0.007 | inactive: -0.041
5 | NDUFA12 (UniProt Q9UI09) | inactive: 0.007 | inactive: -0.069 | inactive: 0.118 | inactive: -0.091 | inactive: 0.003
6 | NDUFS3 (UniProt O75489) | inactive: 0.015 | inactive: 0.048 | inactive: 0.006 | inactive: 0.04 | inactive: -0.001
7 | NEK9 (UniProt Q8TD19) | inactive: -0.002 | inactive: 0.002 | inactive: -0.033 | inactive: 0.017 | inactive: -0.032
8 | NDUFV1 (UniProt P49821) | inactive: 0.027 | inactive: 0.011 | inactive: -0.004 | inactive: 0.014 | inactive: 0.004
9 | NDRG1 (UniProt Q92597) | inactive: -0.083 | inactive: -0.19 | inactive: -0.104 | inactive: -0.069 | inactive: -0.024
10 | NFXL1 (UniProt Q6ZNB6) | inactive: 0.043 | inactive: 0.095 | inactive: -0.021 | inactive: -0.022 | inactive: -0.059
11 | NDUFB8 (UniProt O95169) | inactive: -0.011 | inactive: -0.046 | inactive: 0.022 | inactive: -0.015 | inactive: 0.04
12 | NEBL isoform 2 (UniProt O76041) | inactive: -0.025 | inactive: -0.102 | inactive: 0.018 | inactive: -0.07 | inactive: -0.094
13 | NDUFA8 (UniProt P51970) | inactive: -0.023 | inactive: -0.002 | inactive: -0.003 | inactive: 0.056 | inactive: 0.1
14 | NIT1 (UniProt Q86X76) | inactive: -0.022 | inactive: 0.004 | inactive: 0.012 | inactive: 0.034 | inactive: -0.074
15 | NFATC2IP (UniProt Q8NCF5) | inactive: 0.012 | inactive: -0.01 | inactive: 0.009 | inactive: 0.138 | inactive: 0.049
16 | NKTR (UniProt P30414) | inactive: 0.06 | inactive: -0.022 | inactive: 0.103 | inactive: -0.38 | inactive: -0.218
17 | NIP7 (UniProt Q9Y221) | inactive: 0.016 | inactive: -0.036 | inactive: 0.036 | inactive: 0.053 | inactive: -0.068

Row | Target | log2 fold change [1] | log2 fold change [2] | log2 fold change [3] | log2 fold change [4] | log2 fold change [5]
18 | NDE1 isoform 1 (UniProt Q9NXR1) | inactive: -0.022 | inactive: 0.031 | inactive: 0.035 | inactive: -0.021 | inactive: -0.023
19 | NKAP (UniProt Q8N5F7) | inactive: 0.031 | inactive: 0.044 | inactive: -0.046 | inactive: -0.122 | inactive: -0.025
20 | NIPSNAP3A (UniProt Q9UFN0) | inactive: 0.083 | inactive: -0.037 | inactive: -0.013 | inactive: -0.036 | active: 0.322
21 | NDFIP1 (UniProt Q9BT67) | inactive: -0.049 | inactive: 0 | inactive: 0.108 | inactive: -0.332 | inactive: -0.022
22 | NEXN (UniProt Q0ZGT2) | inactive: -0.31 | inactive: 0.335 | inactive: 0.271 | inactive: -0.083 | inactive: -0.22
23 | NIPSNAP1 (UniProt Q9BPW8) | inactive: 0.01 | inactive: 0.012 | inactive: 0.029 | inactive: 0.043 | inactive: 0.08
24 | NDUFC2 (UniProt O95298) | inactive: 0.04 | inactive: -0.078 | inactive: 0.014 | inactive: 0.008 | inactive: -0.029
25 | NIF3L1 (UniProt Q9GZT8) | inactive: 0.046 | inactive: -0.002 | inactive: 0.031 | inactive: 0.002 | inactive: -0.044
26 | NDUFB4 (UniProt O95168) | inactive: -0.011 | inactive: 0.029 | inactive: 0.011 | inactive: 0.019 | inactive: 0.118
27 | NDUFAF2 (UniProt Q8N183) | inactive: -0.035 | inactive: 0.029 | inactive: 0.002 | inactive: -0.038 | inactive: -0.112
28 | NDUFB5 (UniProt O43674) | inactive: 0.028 | inactive: -0.021 | inactive: 0.023 | inactive: -0.05 | inactive: 0.024
29 | NDUFS7 (UniProt O75251) | inactive: -0.045 | inactive: 0.067 | inactive: -0.017 | inactive: 0.033 | inactive: 0.082
30 | NENF (UniProt Q9UMX5) | inactive: 0.009 | inactive: -0.056 | inactive: -0.001 | inactive: -0.033 | inactive: 0.037
31 | NFE2L1 (UniProt Q14494) | – | – | inactive: 0.02 | – | inactive: -0.031
32 | NIN isoform 7 (UniProt Q8N4C6) | – | – | – | – | inactive: 0.029
33 | NEK8 (UniProt Q86SG6) | – | – | inactive: -0.017 | – | inactive: 0.047
